Consider one sequence from publication PMC6327479.

Construct, isoform or probe ends are uncertain for at least one entry. Tags and fusion partners may be left off the protein sequences shown.

The data set concerns T1, HicB RHH1 domain-6His (Sinorhizobium meliloti).
T1 sequence (looked up, limits assumed): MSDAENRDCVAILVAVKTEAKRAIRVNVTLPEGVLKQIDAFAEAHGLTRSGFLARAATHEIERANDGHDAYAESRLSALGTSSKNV
Put plainly: EMSA. To be noted: 0-5 uM RHH, stated to bind as efficiently as HicB; EMSA: 10 mM Tris-HCl pH 7.5, 50 mM NaCl, 1 mM DTT, 300 ug/ml BSA, 20 ul, 30 min at 25 C; 5% native PAGE in TAE pH 7.5; recombinant protein; protein details: C-terminal 6His; label: [alpha-32P]dCTP, internal by PCR; probe letters rebuilt from the primers and the genome.

“GATCCGACGGTTCGAGACCATCCGAGAAAGCCGCCTTAGATTGGCTTGACAAATTCATTGGACGAATACACATGCGTGTGTATTGTCGTATCAGATGAAGAGCGGCGACATTATTGCAGCATTGCAGAAGGACGGATGGTACGAGGTTGCGACCAAGGGCAGCCACGTTCAATTCAAACATCCGAAAAAGCACGGCCGGGTTACCGTTCCTCACCCGAAGA (double strand) [hicAB promoter fragment]”: the binding result is listed as “binds”.
